# Reference: PubChem BioAssay AID256 (DTP/NCI, 2004)
# The list is a part of this screen's results and no random one: it gathers tests that were run many times, whatever their T/C, doses with no T/C, and many T/C values between a quarter and a half above the control. Other doses and runs of a compound stand elsewhere. T/C gives the treated animals as a percentage of the vehicle group. Some entries give survivors of the animals treated and no T/C: the source files T/C as zero there, which appears to mark a toxic dose or a test without result, not a measured value. Some doses without a T/C left all or most animals alive at the check, yet need not have been tolerated: the source hardly ever lists a survival T/C far under the control, and the zero likely stands for such cases as well. Counts of survivors are from the toxicity check (mostly the fifth day) where no day follows; animals may have died later. Schedules are NCI's codes, taken here to give the interval after Q, in days (D) or hours (H), and the number of doses after X. Some doses were run more than once; the results are listed from low to high. Some schedule codes hold Z or #, which are not explained here. Where survival is the endpoint, the PubChem record calls one and a half times the control and up active, and a quarter to a half above the control has no call in these data; cut-offs in other NCI protocols can differ. Some T/C values are followed by the survivors on the day toxicity was checked, most often the fifth; where none is given, no animal had died by that day.
# System: CD2F1 mice, L1210 leukemia ip, survival T/C
# Assay: NCI In Vivo Anticancer Drug Screen. Data for tumor model L1210 Leukemia (intraperitoneal) in CD2F1 (CDF1) mice
# Details: higher T/C = longer survival
# In short: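 Antitumor effect is scored in animals hosting a serially transplanted tumor. Values compare compound-dosed animals against vehicle-only controls as a simple quotient.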
# [1] = T/C endpoint: mean survival time, dose: 200.0 mg/kg/injection, schedule: Q04DX003 (ip), vehicle: saline
# [2] = T/C endpoint: mean survival time, dose: 400.0 mg/kg/injection, schedule: Q04DX003 (ip), vehicle: saline
# [3] = T/C endpoint: mean survival time, dose: 300.0 mg/kg/injection, schedule: Q01DX001 (ip), vehicle: saline
# [4] = T/C endpoint: mean survival time, dose: 100.0 mg/kg/injection, schedule: Q04DX002 (ip), vehicle: saline with Tween-80
structure (smiles),measurement,setting,value
CNC(=O)OCc1c(COC(=O)NC)c(-c2ccccc2)n(C)c1-c1ccccc1,T/C,"T/C endpoint: mean survival time, dose: 12.5 mg/kg/injection, schedule: Q01DX009 (ip), vehicle: distilled water + Tween-80",140 % of control
same,T/C,"T/C endpoint: mean survival time, dose: 25.0 mg/kg/injection, schedule: Q01DX009 (ip), vehicle: distilled water + Tween-80",147 % of control
same,survivor count,"T/C endpoint: mean survival time, dose: 100.0 mg/kg/injection, schedule: Q01DX009 (ip), vehicle: distilled water + Tween-80",3 of 6
C=C(C)C1(Cc2ccccc2)C(=O)NC(=S)NC1=O,survivor count,"T/C endpoint: mean survival time, dose: 40.0 mg/kg/injection, schedule: Q01DX001 (ip), vehicle: saline",0 of 6
same,survivor count,"T/C endpoint: mean survival time, dose: 80.0 mg/kg/injection, schedule: Q01DX001 (ip), vehicle: saline",0 of 6
CCSCCNC1=C(C)C(=O)C2=C(C1=O)[C@H](COC(N)=O)[C@]1(OC)[C@@H]3N[C@@H]3CN21,T/C,"T/C endpoint: mean survival time, dose: 12.0 mg/kg/injection, schedule: Q01DX001 (ip), vehicle: distilled water + Tween-80",137 % of control
same,survivor count,"T/C endpoint: mean survival time, dose: 48.0 mg/kg/injection, schedule: Q01DX001 (ip), vehicle: distilled water + Tween-80",1 of 6
CN1CC=C(N2CCOCC2)CC1,survivor count,[1],6 of 6
same,survivor count,[2],3 of 6
CC1CN=C(c2ccc(NC(=O)Nc3ccc(NC(=O)c4ccc(C5=NCC(C)N5)cc4)cc3)cc2)N1 (stereo not given),survivor count,"T/C endpoint: mean survival time, dose: 40.0 mg/kg/injection, schedule: Q01DX Z (ip), vehicle: water",0 of 6
same,survivor count,"T/C endpoint: mean survival time, dose: 60.0 mg/kg/injection, schedule: Q01DX Z (ip), vehicle: water",0 of 6
same,survivor count,"T/C endpoint: mean survival time, dose: 90.0 mg/kg/injection, schedule: Q01DX Z (ip), vehicle: water",0 of 6
[N-]=[N+]=CC(=O)CCC(NC(=O)OCc1ccccc1)C(=O)OCc1ccccc1 (stereo not given),T/C,"T/C endpoint: median survival time, dose: 12.5 mg/kg/injection, schedule: Q01DX009 (ip), vehicle: Klucel (hydroxypropylcellulose) (HPC)",138 % of control
same,T/C,"T/C endpoint: median survival time, dose: 25.0 mg/kg/injection, schedule: Q01DX009 (ip), vehicle: Klucel (hydroxypropylcellulose) (HPC)","101, 130, 162, 164 % of control"
same,T/C,"T/C endpoint: median survival time, dose: 50.0 mg/kg/injection, schedule: Q01DX009 (ip), vehicle: Klucel (hydroxypropylcellulose) (HPC)","105, 115, 131, 138 % of control"
same,T/C,"T/C endpoint: median survival time, dose: 100.0 mg/kg/injection, schedule: Q01DX009 (ip), vehicle: Klucel (hydroxypropylcellulose) (HPC)","90, 94, 105, 178 % of control"
same,survivor count,"T/C endpoint: median survival time, dose: 400.0 mg/kg/injection, schedule: Q01DX009 (ip), vehicle: Klucel (hydroxypropylcellulose) (HPC)",5 of 6 and 6 of 6
CS(=O)(=O)OCC(=O)NCCCCNC(=O)COS(C)(=O)=O,survivor count,"T/C endpoint: mean survival time, dose: 400.0 mg/kg/injection, schedule: Q01DX001 (ip), vehicle: saline",1 of 6
CC(C)c1cc(O)c(C(C)C)cc1O,survivor count,[3],0 of 6
CC(=O)CSc1ncnc2nc[nH]c12,T/C,"T/C endpoint: mean survival time, dose: 125.0 mg/kg/injection, schedule: Q01DX015 (ip), vehicle: saline",126 % of control
same,T/C,"T/C endpoint: mean survival time, dose: 500.0 mg/kg/injection, schedule: Q01DX015 (ip), vehicle: saline",130 % of control
CC([NH-])C(=O)O.[Cl][Pt][Cl] (stereo not given),survivor count,"T/C endpoint: mean survival time, dose: 100.0 mg/kg/injection, schedule: Q04DX003 (ip), vehicle: saline",0 of 6
same,survivor count,[1],0 of 6
same,survivor count,[2],0 of 6
CCC[CH2][Sn]([Br])([c]1ccccc1)[c]1ccccc1,survivor count,"T/C endpoint: mean survival time, dose: 6.25 mg/kg/injection, schedule: Q01DX009 (ip), vehicle: saline with Tween-80",4 of 6
same,survivor count,"T/C endpoint: mean survival time, dose: 12.5 mg/kg/injection, schedule: Q01DX009 (ip), vehicle: saline with Tween-80",0 of 6
same,survivor count,"T/C endpoint: mean survival time, dose: 25.0 mg/kg/injection, schedule: Q01DX009 (ip), vehicle: saline with Tween-80",0 of 6
same,survivor count,"T/C endpoint: mean survival time, dose: 25.0 mg/kg/injection, schedule: Q04DX002 (ip), vehicle: saline with Tween-80",0 of 3
same,survivor count,"T/C endpoint: mean survival time, dose: 50.0 mg/kg/injection, schedule: Q04DX002 (ip), vehicle: saline with Tween-80",0 of 3
same,survivor count,[4],0 of 3
Cc1[nH]c(=O)[nH]c(=O)c1N(CCF)CCCl,survivor count,"T/C endpoint: mean survival time, dose: 39.0 mg/kg/injection, schedule: Q01DX009 (ip), vehicle: saline",10 of 10
same,T/C,"T/C endpoint: mean survival time, dose: 39.0 mg/kg/injection, schedule: Q04DX003 (ip), vehicle: saline",126 % of control
same,survivor count,"T/C endpoint: mean survival time, dose: 65.0 mg/kg/injection, schedule: Q01DX009 (ip), vehicle: saline",9 of 10
same,survivor count,"T/C endpoint: mean survival time, dose: 65.0 mg/kg/injection, schedule: Q04DX003 (ip), vehicle: saline",10 of 10
same,survivor count,"T/C endpoint: mean survival time, dose: 108.0 mg/kg/injection, schedule: Q01DX001 (ip), vehicle: saline",6 of 10
same,survivor count,"T/C endpoint: mean survival time, dose: 108.0 mg/kg/injection, schedule: Q04DX003 (ip), vehicle: saline",8 of 10
same,survivor count,"T/C endpoint: mean survival time, dose: 128.0 mg/kg/injection, schedule: Q01DX001 (ip), vehicle: acid diluted with saline",0 of 10
same,T/C,"T/C endpoint: mean survival time, dose: 128.0 mg/kg/injection, schedule: Q01DX001 (ip), vehicle: saline",128 [8 of 10 alive] and 147 % of control [8 of 10 alive]
same,survivor count,"T/C endpoint: mean survival time, dose: 180.0 mg/kg/injection, schedule: Q01DX001 (ip), vehicle: saline",0 of 10
same,survivor count,"T/C endpoint: mean survival time, dose: 180.0 mg/kg/injection, schedule: Q04DX003 (ip), vehicle: saline",3 of 10
same,survivor count,[3],0 of 10
same,survivor count,"T/C endpoint: mean survival time, dose: 500.0 mg/kg/injection, schedule: Q01DX001 (ip), vehicle: saline",0 of 10
same,survivor count,"T/C endpoint: median survival time, dose: 2.0 mg/kg/injection, schedule: Q01DX009 (sc), vehicle: acid diluted with saline",10 of 10
same,T/C,"T/C endpoint: median survival time, dose: 32.0 mg/kg/injection, schedule: Q01DX009 (ip), vehicle: acid diluted with saline",130 % of control
same,T/C,"T/C endpoint: median survival time, dose: 32.0 mg/kg/injection, schedule: Q01DX009 (sc), vehicle: acid diluted with saline",128 % of control
same,survivor count,"T/C endpoint: median survival time, dose: 32.0 mg/kg/injection, schedule: Q03HX008 (oral), vehicle: acid diluted with saline",2 of 10
same,T/C,"T/C endpoint: median survival time, dose: 32.0 mg/kg/injection, schedule: Q03HX016 (oral), vehicle: acid diluted with saline",131 % of control [8 of 10 alive]
same,survivor count,"T/C endpoint: median survival time, dose: 32.0 mg/kg/injection, schedule: Q03HX024 (oral), vehicle: acid diluted with saline",5 of 10
same,survivor count,"T/C endpoint: median survival time, dose: 64.0 mg/kg/injection, schedule: Q03HX008 (oral), vehicle: acid diluted with saline",0 of 10
same,survivor count,"T/C endpoint: median survival time, dose: 64.0 mg/kg/injection, schedule: Q03HX016 (oral), vehicle: acid diluted with saline",0 of 10
same,survivor count,"T/C endpoint: median survival time, dose: 128.0 mg/kg/injection, schedule: Q01DX001 (ip), vehicle: acid diluted with saline",5 of 10
same,T/C,"T/C endpoint: median survival time, dose: 128.0 mg/kg/injection, schedule: Q01DX009 (oral), vehicle: acid diluted with saline",125 % of control
same,survivor count,"T/C endpoint: median survival time, dose: 128.0 mg/kg/injection, schedule: Q03HX008 (oral), vehicle: acid diluted with saline",0 of 10
same,survivor count,"T/C endpoint: median survival time, dose: 128.0 mg/kg/injection, schedule: Q03HX016 (oral), vehicle: acid diluted with saline",0 of 10
same,survivor count,"T/C endpoint: median survival time, dose: 128.0 mg/kg/injection, schedule: Q08DX002 (ip), vehicle: acid diluted with saline",5 of 10
same,survivor count,"T/C endpoint: median survival time, dose: 256.0 mg/kg/injection, schedule: Q01DX001 (ip), vehicle: acid diluted with saline",0 of 10
same,survivor count,"T/C endpoint: median survival time, dose: 512.0 mg/kg/injection, schedule: Q08DX002 (oral), vehicle: acid diluted with saline",5 of 10
same,survivor count,"T/C endpoint: median survival time, dose: 1024.0 mg/kg/injection, schedule: Q01DX001 (oral), vehicle: acid diluted with saline",0 of 10
same,survivor count,"T/C endpoint: median survival time, dose: 1024.0 mg/kg/injection, schedule: Q08DX002 (oral), vehicle: acid diluted with saline",0 of 10
CCCOC(=O)c1cc([N+](=O)[O-])cc([N+](=O)[O-])c1Sc1ncnc2nc[nH]c12,survivor count,"T/C endpoint: mean survival time, dose: 80.0 mg/kg/injection, schedule: Q01DX005 (ip), vehicle: other",1 of 3
C=C1C(=C)C2C=CC1C1C3C(c4ccccn4)=NN=C(c4ccccn4)C3C21 (stereo not given),survivor count,[4],3 of 3
O=[N+]([O-])c1ccc(N/N=C/CCl)c([N+](=O)[O-])c1,survivor count,"T/C endpoint: mean survival time, dose: 100.0 mg/kg/injection, schedule: Q04DX003 (ip), vehicle: saline with Tween-80",1 of 6
same,survivor count,"T/C endpoint: mean survival time, dose: 200.0 mg/kg/injection, schedule: Q04DX003 (ip), vehicle: saline with Tween-80",0 of 6
same,survivor count,"T/C endpoint: mean survival time, dose: 400.0 mg/kg/injection, schedule: Q04DX003 (ip), vehicle: saline with Tween-80",0 of 6
COc1cc2c(cc1OCc1ccccc1)NC(=O)C2,survivor count,"T/C endpoint: mean survival time, dose: 200.0 mg/kg/injection, schedule: Q01DX001 (ip), vehicle: saline with Tween-80",6 of 6
